Assay results: paper PMC9426563
No constants are given. Whether binding was seen depends on the method and setting. Binding seen in cells or lysates may run through a third protein. These calls come from enrichment with a bait or labelling near it, and not all partners need be listed.

Chains of the proteins cited; added tags and fusions are not shown. Lines headed by an entry give the natural chain unless they say otherwise; changes in a name come on top.
UniProt Q8I2X7: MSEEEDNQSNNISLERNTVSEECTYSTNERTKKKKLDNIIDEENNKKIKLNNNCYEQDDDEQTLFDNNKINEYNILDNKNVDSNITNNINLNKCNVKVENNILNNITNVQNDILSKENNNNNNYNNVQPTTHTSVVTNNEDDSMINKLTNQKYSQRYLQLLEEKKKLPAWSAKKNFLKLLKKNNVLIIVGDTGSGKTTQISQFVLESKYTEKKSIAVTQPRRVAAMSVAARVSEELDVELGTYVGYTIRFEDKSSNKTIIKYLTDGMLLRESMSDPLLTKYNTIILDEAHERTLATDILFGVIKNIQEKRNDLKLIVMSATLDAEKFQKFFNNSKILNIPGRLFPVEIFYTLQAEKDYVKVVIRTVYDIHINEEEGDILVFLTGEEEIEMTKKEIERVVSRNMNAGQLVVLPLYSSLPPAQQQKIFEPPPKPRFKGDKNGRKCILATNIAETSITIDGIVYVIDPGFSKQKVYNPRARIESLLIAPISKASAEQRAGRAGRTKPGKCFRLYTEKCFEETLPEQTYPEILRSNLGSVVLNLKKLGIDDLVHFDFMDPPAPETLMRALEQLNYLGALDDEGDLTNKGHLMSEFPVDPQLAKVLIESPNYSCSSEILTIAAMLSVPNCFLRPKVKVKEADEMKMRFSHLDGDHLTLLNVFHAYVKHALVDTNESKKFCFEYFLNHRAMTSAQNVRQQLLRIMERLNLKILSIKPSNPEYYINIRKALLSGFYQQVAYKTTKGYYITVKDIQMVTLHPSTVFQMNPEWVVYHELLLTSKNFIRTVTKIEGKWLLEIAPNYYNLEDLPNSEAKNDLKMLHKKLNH
UniProt Q8I4Y3: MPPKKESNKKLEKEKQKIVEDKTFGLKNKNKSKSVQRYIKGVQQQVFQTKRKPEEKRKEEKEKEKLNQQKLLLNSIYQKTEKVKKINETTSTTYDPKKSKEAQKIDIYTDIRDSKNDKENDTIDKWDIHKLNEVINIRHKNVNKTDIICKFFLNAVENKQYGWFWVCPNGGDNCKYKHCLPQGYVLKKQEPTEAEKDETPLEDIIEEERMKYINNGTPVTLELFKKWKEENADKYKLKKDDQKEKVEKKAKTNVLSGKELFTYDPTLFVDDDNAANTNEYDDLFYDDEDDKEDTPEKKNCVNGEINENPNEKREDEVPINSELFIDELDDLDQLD
UniProt Q8IIX0: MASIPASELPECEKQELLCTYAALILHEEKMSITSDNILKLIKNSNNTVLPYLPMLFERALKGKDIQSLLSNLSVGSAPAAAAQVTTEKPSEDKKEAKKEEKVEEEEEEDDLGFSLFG
UniProt Q8IK93: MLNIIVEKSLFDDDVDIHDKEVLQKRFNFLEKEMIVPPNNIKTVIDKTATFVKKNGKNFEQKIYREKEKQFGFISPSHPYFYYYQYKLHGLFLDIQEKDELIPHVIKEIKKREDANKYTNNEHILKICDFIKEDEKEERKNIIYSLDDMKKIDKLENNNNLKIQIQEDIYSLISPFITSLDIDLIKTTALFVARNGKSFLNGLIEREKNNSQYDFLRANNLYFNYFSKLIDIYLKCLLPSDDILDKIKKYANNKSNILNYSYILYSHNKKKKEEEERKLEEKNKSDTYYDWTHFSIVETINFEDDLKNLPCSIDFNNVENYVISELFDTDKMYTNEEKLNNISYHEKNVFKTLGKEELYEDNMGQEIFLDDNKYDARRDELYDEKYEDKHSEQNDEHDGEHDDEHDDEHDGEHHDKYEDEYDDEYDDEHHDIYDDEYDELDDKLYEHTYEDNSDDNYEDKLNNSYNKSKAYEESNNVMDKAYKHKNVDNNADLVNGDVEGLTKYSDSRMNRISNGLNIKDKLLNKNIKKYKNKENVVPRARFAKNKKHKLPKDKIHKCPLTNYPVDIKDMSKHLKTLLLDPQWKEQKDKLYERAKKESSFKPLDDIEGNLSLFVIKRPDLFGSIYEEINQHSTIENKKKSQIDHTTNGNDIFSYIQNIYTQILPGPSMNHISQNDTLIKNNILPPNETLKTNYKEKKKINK
UniProt Q8IKM5: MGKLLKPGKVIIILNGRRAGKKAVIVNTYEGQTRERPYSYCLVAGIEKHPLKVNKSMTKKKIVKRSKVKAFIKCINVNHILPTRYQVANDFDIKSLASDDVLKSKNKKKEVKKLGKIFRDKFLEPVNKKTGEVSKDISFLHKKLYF
UniProt Q25804: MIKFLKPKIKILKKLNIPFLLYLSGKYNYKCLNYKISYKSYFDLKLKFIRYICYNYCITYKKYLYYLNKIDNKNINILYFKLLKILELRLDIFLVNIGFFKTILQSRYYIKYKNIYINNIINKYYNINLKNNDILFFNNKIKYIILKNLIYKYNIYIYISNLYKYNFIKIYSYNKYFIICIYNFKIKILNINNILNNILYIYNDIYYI
UniProt Q8ILM5: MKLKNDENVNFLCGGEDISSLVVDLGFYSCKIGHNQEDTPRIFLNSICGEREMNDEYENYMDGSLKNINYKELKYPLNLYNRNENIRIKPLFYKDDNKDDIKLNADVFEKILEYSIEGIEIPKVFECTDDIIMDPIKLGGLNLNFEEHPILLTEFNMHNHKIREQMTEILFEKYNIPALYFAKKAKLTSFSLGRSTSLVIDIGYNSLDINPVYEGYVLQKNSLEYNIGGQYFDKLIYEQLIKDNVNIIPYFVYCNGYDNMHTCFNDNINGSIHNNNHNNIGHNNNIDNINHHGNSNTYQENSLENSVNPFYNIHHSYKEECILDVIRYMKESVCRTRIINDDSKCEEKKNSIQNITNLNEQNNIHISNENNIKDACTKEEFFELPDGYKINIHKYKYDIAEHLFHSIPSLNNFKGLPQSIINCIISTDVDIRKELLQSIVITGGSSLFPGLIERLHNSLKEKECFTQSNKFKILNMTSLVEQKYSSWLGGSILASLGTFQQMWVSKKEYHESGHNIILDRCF
UniProt Q8IJK8: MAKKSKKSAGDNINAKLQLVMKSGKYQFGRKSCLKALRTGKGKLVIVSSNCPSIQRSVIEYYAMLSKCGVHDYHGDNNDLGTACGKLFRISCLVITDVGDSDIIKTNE
UniProt Q8I3J3: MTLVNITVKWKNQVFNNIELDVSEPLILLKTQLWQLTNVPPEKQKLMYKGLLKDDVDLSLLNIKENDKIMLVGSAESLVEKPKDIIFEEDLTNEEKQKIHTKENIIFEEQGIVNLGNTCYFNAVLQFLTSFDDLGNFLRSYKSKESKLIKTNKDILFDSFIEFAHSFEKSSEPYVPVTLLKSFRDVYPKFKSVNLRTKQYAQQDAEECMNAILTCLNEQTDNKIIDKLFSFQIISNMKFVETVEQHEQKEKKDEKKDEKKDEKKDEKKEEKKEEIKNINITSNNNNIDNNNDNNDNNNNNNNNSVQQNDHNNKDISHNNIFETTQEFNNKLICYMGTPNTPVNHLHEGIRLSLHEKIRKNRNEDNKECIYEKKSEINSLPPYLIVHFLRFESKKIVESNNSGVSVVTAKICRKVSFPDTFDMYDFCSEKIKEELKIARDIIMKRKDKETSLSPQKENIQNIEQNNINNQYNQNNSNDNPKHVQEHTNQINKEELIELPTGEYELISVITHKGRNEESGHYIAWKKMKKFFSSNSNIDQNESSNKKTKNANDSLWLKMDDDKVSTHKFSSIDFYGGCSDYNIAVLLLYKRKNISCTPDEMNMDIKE
UniProt Q8I3Q6: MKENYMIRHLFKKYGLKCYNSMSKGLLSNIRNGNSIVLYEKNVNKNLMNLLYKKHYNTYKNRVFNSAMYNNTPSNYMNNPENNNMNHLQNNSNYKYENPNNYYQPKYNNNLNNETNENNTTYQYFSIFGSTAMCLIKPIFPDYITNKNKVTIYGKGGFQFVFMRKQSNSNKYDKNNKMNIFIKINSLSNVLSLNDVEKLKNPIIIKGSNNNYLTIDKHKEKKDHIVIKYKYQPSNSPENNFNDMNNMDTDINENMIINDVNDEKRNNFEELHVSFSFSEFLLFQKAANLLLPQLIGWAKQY
UniProt Q8I1V1: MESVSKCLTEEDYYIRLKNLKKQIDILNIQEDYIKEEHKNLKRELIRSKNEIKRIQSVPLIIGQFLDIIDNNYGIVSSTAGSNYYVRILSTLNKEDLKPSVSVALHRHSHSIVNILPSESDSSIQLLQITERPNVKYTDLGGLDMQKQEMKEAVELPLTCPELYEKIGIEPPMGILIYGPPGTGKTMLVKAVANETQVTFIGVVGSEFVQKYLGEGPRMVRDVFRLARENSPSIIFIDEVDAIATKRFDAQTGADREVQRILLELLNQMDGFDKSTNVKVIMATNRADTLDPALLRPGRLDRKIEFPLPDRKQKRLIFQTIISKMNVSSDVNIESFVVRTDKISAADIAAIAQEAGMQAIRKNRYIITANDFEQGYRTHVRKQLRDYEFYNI
UniProt Q8IET7: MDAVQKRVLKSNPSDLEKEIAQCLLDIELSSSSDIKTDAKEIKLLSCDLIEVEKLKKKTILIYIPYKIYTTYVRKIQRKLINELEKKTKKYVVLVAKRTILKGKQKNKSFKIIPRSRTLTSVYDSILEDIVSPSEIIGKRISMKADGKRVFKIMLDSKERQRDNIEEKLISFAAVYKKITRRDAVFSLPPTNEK
UniProt Q8IFP2: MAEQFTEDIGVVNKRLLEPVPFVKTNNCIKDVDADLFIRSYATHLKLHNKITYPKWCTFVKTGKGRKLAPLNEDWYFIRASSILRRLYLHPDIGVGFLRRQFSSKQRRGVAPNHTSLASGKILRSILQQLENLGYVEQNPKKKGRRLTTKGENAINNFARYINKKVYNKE
UniProt Q8I2S6: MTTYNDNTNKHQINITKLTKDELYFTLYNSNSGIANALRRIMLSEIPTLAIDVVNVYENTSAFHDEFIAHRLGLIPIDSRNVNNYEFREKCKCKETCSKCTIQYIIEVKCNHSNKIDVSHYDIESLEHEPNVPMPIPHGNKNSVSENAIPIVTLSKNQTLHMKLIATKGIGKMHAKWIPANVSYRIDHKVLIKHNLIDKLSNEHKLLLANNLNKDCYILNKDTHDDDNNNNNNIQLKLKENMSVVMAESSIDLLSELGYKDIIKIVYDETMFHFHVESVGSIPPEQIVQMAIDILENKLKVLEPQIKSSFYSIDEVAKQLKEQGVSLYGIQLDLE
UniProt C0H5B1: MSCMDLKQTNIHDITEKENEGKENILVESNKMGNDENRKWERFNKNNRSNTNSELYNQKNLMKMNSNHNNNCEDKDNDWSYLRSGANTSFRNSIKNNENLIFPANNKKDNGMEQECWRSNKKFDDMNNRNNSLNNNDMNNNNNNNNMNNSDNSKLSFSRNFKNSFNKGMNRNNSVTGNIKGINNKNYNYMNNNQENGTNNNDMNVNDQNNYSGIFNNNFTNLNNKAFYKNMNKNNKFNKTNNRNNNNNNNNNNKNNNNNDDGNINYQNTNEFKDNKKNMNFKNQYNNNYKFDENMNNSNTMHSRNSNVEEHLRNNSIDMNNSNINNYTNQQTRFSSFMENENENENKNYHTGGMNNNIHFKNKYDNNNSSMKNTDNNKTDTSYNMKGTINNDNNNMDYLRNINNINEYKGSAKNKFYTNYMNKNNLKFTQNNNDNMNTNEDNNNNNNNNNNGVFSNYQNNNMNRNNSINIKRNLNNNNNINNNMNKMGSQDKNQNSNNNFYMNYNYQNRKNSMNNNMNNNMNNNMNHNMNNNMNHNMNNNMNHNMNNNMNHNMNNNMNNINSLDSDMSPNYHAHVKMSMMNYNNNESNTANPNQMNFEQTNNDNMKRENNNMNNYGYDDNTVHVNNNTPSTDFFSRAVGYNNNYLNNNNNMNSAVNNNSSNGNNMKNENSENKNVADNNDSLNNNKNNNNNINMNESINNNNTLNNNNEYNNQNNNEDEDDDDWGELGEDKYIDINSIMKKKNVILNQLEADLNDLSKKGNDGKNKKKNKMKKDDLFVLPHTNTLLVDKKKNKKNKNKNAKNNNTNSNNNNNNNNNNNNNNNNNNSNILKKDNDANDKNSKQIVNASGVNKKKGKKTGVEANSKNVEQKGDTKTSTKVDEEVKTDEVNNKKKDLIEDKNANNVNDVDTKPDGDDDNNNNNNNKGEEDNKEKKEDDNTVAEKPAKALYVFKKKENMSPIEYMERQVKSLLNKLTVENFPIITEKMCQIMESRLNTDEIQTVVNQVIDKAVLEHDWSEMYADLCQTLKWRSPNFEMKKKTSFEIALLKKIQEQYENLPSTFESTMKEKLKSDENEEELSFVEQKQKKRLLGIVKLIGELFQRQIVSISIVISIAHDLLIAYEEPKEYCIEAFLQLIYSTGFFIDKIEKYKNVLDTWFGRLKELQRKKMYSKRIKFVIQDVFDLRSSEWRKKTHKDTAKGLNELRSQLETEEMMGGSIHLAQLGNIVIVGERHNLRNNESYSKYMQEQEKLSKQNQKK
UniProt Q8IM10: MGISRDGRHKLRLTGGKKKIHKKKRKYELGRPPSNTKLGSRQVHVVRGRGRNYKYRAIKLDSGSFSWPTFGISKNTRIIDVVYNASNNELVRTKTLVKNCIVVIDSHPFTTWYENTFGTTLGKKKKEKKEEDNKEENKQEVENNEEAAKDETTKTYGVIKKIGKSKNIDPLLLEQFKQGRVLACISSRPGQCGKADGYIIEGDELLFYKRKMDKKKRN
UniProt Q8ILK3: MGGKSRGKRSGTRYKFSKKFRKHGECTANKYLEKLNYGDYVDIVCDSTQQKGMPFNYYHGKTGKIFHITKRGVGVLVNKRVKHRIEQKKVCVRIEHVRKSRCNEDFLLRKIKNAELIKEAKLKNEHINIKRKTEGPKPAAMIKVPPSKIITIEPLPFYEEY

molecular target: PfNIF4-FKBP-TurboID fusion protein (P. falciparum (endogenous locus of the 3D7 parasite, tagged)) (UniProt Q8IJR8); experiment: proximity labelling; TurboID: synchronized NIF4^TurboID schizonts (36 hpi) labelled with 500 μM biotin at 37°C for 10 min; biotinylated proteins purified from the lysate (Pierce IP Lysis Buffer) on streptavidin magnetic beads, digested on the beads, LC-MS/MS; 3D7 parasites as negative control; three biological replicates; hits filtered against a nuclear proteome data set

| Substance | binding |
| --- | --- |
| histone H3 (H3.3, PF3D7_0617900) (from UniProt C6KT19) | binds |
| pre-mRNA-splicing factor ATP-dependent RNA helicase PRP43, putative (from UniProt Q8I2X7) | binds |
| translation machinery-associated protein 46, putative (from UniProt Q8I4Y3) | binds |
| AP2 domain transcription factor SIP2 (from UniProt C6KSN9) | binds |
| importin-7, putative (from UniProt C0H4L1) | binds |
| 60S acidic ribosomal protein P1, putative (from UniProt Q8IIX0) | binds |
| splicing factor 3A subunit 1, putative (from UniProt Q8IK93) | binds |
| Obg-like ATPase 1, putative (from UniProt Q8IBM9) | binds |
| 60S ribosomal protein L27 (from UniProt Q8IKM5) | binds |
| 40S ribosomal protein S4, putative (from UniProt Q25804) | binds |
| actin-related protein ARP4 (from UniProt Q8ILM5) | binds |
| 60S ribosomal protein L30e, putative (from UniProt Q8IJK8) | binds |
| ubiquitin carboxyl-terminal hydrolase 14 (from UniProt Q8I3J3) | binds |
| single-stranded DNA-binding protein, putative (from UniProt Q8I3Q6) | binds |
| histone acetyltransferase GCN5 (from UniProt Q8IB67 1-1465) | binds |
| 26S protease regulatory subunit 6B, putative (from UniProt Q8I1V1) | binds |
| glutamate dehydrogenase, putative (from UniProt Q8IAM0) | binds |
| 40S ribosomal protein S7, putative (from UniProt Q8IET7) | binds |
| 40S ribosomal protein S19 (PF3D7_0422400) (from UniProt Q8IFP2) | binds |
| DNA-directed RNA polymerase II subunit RPB3 (from UniProt Q8I2S6) | binds |
| eukaryotic translation initiation factor 4 gamma (from UniProt C0H5B1) | binds |
| 40S ribosomal protein S8e, putative (from UniProt Q8IM10) | binds |
| 60S ribosomal protein L21 (from UniProt Q8ILK3) | binds |
